Some of the results follow. Values are raw readings; no control value is given beside them.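 First-pass screen: polymyxin B was added at a level that permeabilizes the Salmonella outer membrane while sparing the inner membrane. DMSO wells, with and without polymyxin B, defined maximum growth. Because plates differed from one another, each plate's data were ranked separately and the compounds with the lowest OD600 were carried forward as hits.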
Tested on: Salmonella enterica serovar Typhimurium SL1344
Assay: bacterial growth OD600 after 18 h with compound and polymyxin B; higher = more bacterial growth (less inhibition)
Settings: 50 µM, Mueller-Hinton broth

| SMILES | bacterial growth OD600 (polymyxin B 0.75 µg/mL) | bacterial growth OD600 (polymyxin B 1 µg/mL) |
| --- | --- | --- |
| CO[C@H]1[C@H](NC(=O)c2ccccn2)c2ccccc2C12CCN(C(=O)CSc1ncccn1)CC2 | 0.822 | – |
| Cc1cc(C)n(CCC(=O)N(Cc2ccncc2)Cc2cccc(OCCc3ccc(F)cc3)c2)n1 | -0.001 | – |
| O=C(c1coc(COc2cccc(F)c2)n1)N1CC[C@@H]2CCCC[C@H]2C1 | – | 0.043 |
| CN(Cc1cn(C)nc1-c1cccc(Cl)c1)CC1Cc2ccccc2O1 (stereo unspecified) | – | 0.785 |
| COCCN1C(=O)CC(CC(=O)N2CC3(C)CC2CC(C)(C)C3)(c2cccc(OC)c2)C1=O (stereo unspecified) | 0.007 | – |
| Cc1ccoc1C(=O)N1CCC(C2CCN(CCc3ccccc3)C2)CC1 (stereo unspecified) | 0.515 | – |
| COc1ccc(-c2n[nH]cc2CN(C)C(C)c2nccs2)c(OC)c1 (stereo unspecified) | – | 1 |
| CN(CC1CCCCO1)C(=O)c1coc(COc2cccc(F)c2F)n1 (stereo unspecified) | – | 0.968 |
| Cc1ccccc1C(=O)NC1CC(=O)N(Cc2ccc(F)cc2)C1 (stereo unspecified) | – | 0.789 |
| CCOC(=O)C1(Cc2cccc(F)c2)CCN(Cc2cn(C)nc2C)CC1 | – | 0.97 |
| Cn1cc(CNC(=O)c2cc(COc3cccc(F)c3)[nH]n2)cn1 | – | 0.939 |
| Cc1ncc2c(c1CNS(=O)(=O)c1cccs1)CCN(C(=O)Cc1ccc(F)cc1Cl)C2 | 0.671 | – |
| COc1ccc(CN2CCNC(=O)C2CC(=O)N(C)Cc2cccnc2)c(F)c1 (stereo unspecified) | – | 0.93 |
| COCc1ccc(C(=O)N2CCc3onc(-c4ccccc4F)c3C2)s1 | 0.491 | – |
| O=C(c1ccco1)N1CCC2(CCCN(Cc3ccc(F)cc3)C2=O)C1 (stereo unspecified) | – | 0.925 |
| O=C(CCC1CCCN(Cc2ccco2)C1)Nc1ccc(C(F)(F)F)cc1 (stereo unspecified) | – | 0.85 |
| COCCC(=O)N1CCCCC1C(=O)Nc1cccc(-c2nnc(C)s2)c1 (stereo unspecified) | – | 0.83 |
| CC(Cn1cncn1)NC(=O)C1(N(C)Cc2ccccc2)Cc2ccccc2C1 (stereo unspecified) | 0.581 | – |
| Cc1nc(CN(C)CC2CCCN(CCc3ccc(Cl)cc3)C2)c[nH]1 (stereo unspecified) | 0.785 | – |
| Cc1nn(C)c(C)c1C(C)NC1CCN(c2ccc(C(=O)NCc3ccc4c(c3)OCO4)cc2)CC1 (stereo unspecified) | 0.868 | – |
| COc1ccc(OC2CCN(C(=O)C3CC3)CC2)c(C(=O)NC(C)c2ccc(F)cc2)c1 (stereo unspecified) | – | 0.867 |

Laid out differently: 2 of the compounds above
SMILES	bacterial growth OD600 (polymyxin B 0.75 µg/mL)	bacterial growth OD600 (polymyxin B 1 µg/mL)
Cc1ccoc1C(=O)N1CCC(C2CCN(CCc3ccccc3)C2)CC1 (stereo unspecified)	0.515	–
COc1ccc(-c2n[nH]cc2CN(C)C(C)c2nccs2)c(OC)c1 (stereo unspecified)	–	1
